Out of some 340,000 compounds screened, about 170 (0.05%) were called active. This list was built around the results that the source calls inconclusive (neither active nor inactive); the mix of calls is not that of the screen. The call rests on the fitted dose curve; in most records, active means well fitted inhibition curve with a large enough effect in the signal ratio, with a control signal flat (not every such curve was filed as active); inconclusive means small, poorly fitted or top-dose-only effect, or effect the other way, or a change in a side signal; inactive means flat fitted curve, though single readings scatter; the % refers to the signal ratio. Where the call is inconclusive, the potency comes from a doubtful curve fit.
assay: qHTS Assay to Find Inhibitors of Chronic Active B-Cell Receptor Signaling; details: ABC-DLBCL IkBa-CBG/CBR reporter, luminescence ratio (green luciferase fused to IkBa over red control in TMD8 lymphoma cells), 4 h; activity change, negative = inhibition: at 46.1 µM (top of the series);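 on activity change, negative = inhibition: plate controls were basal doxycycline-induced cells for no effect and cells given 10 µM MG132 for full effect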
Method in brief: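 Compounds up to 46 uM were incubated four hours with TMD8 cells whose green CBG68 luciferase is fused to IkappaBalpha; red CBR luminescence normalised the signal, and concentration-effect curves were fitted to fusion, red and ratio data.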
Potency means the concentration at half of the fitted maximal effect.

Which activity change, negative = inhibition does the source give for `CC1Oc2ccccc2N(CC(=O)N(Cc2ccccc2)Cc2ccccn2)C1=O` (stereo not drawn) here?
Its activity change, negative = inhibition is inconclusive: 2.47%.

With `O=C(O/N=C/c1cccc([N+](=O)[O-])c1)C1CC1` as the molecule, how does the activity change, negative = inhibition read?
The activity change, negative = inhibition was inconclusive: 0.934%.

For `Cc1cccc(NS(=O)(=O)c2ccc(C3CCCCC3)cc2)c1`, which activity change, negative = inhibition is on record?
The activity change, negative = inhibition was inconclusive: 3.37%.

Which “activity change, negative = inhibition” value does the source give for `COc1cc([N+](=O)[O-])ccc1NC(=O)CN(C)C` here?
The value was inactive: -5.27%.

With `CCCCN1C(=O)c2ccc(C(=O)NCCN3C(=O)S/C(=C\c4cccnc4)C3=O)cc2C1=O` as the molecule, how does the “activity change, negative = inhibition” value read?
The value was inactive: 0.151%.

With `CC1CCCC(C)N1C(=O)COc1ccc([N+](=O)[O-])cc1Cl` (stereo not drawn) as the molecule, how does the “activity change, negative = inhibition” value read?
The value was inactive: -8.03%.

For `COc1ccc(-n2c(O)c(C=Nc3ccccc3)c3ccccc3c2=O)cc1`, which “activity change, negative = inhibition” value is on record?
Its value is inactive: 2.84%.

Which “activity change, negative = inhibition” value does the source give for `O=c1cc(-c2ccccc2)oc2ccc(O)cc12` here?
The value was inactive: -6.13%.

For `Cc1ccc(S(=O)(=O)N(CCC(=O)NCc2ccccc2F)c2ccccc2)cc1`, which activity change, negative = inhibition is on record?
The activity change, negative = inhibition was inconclusive: 3.33%.

With `C/C(CC(=O)Nc1ccccn1)=N\NC(=O)C(=O)Nc1cccc(Cl)c1C` as the molecule, how does the activity change, negative = inhibition read?
Its activity change, negative = inhibition is inconclusive: -16.9%.

With `CCOC(=O)c1ccc(CN(Cc2ccccc2C)S(=O)(=O)c2ccc(F)c(C)c2)cc1` as the molecule, how does the “activity change, negative = inhibition” value read?
The value was inactive: 14.2%.

With `COCCNC(=S)NN=C1CCC(c2ccccc2)CC1` (stereo not drawn) as the molecule, how does the Potency read?
Its Potency is inconclusive: 35.5 µM [cytotoxic, single point].

For `COc1ccc(OCC(=O)NNc2c3ccccc3nc3ccccc23)cc1`, which Potency is on record?
The Potency was inconclusive: 18.4 µM [falling, partial curve, poor fit].

Which activity change, negative = inhibition does the source give for `Cc1ccc(C(=O)Nc2ccccc2C(=O)N2CCCCCC2)cc1` here?
Its activity change, negative = inhibition is inconclusive: -2.96%.

With `O=C(Nc1ccccc1N1CCOCC1)c1ccc(Cl)c(S(=O)(=O)NCc2ccco2)c1` as the molecule, how does the activity change, negative = inhibition read?
Its activity change, negative = inhibition is inconclusive: -21.9%.

With `O=C(CC1(O)C(=O)N(C/C=C/c2ccccc2)c2ccccc21)c1ccccn1` (stereo not drawn) as the molecule, how does the Potency read?
Its Potency is inconclusive: 28.2 µM [falling, single point].

Which Potency does the source give for `O=C(NC(=O)c1ccccc1)Nc1ccccc1O` here?
The Potency was inconclusive: 25.1 µM [falling, partial curve].

With `O=C(C1=C[C@H](c2ccc(Br)cc2)C[C@H](OCCCCO)O1)N1CCN(Cc2ccc3c(c2)OCO3)CC1` as the molecule, how does the “activity change, negative = inhibition” value read?
The value was inactive: -0.0356%.

For `O=C(c1ccc(-n2cncn2)c([N+](=O)[O-])c1)N1CCN(S(=O)(=O)c2ccc(F)c(F)c2)CC1`, which “activity change, negative = inhibition” value is on record?
Its value is inactive: 8.64%.

With `CC(C)N(CCCNC(=O)Cn1c(=O)c2cccn2c2ccccc21)Cc1ccccc1` as the molecule, how does the “activity change, negative = inhibition” value read?
The value was inactive: -1.05%.

For `Cc1cccc2c(C(=O)N3CCN(C(=O)c4ccco4)CC3)cc(-c3cccc(Br)c3)nc12`, which activity change, negative = inhibition is on record?
The activity change, negative = inhibition was inconclusive: -10.7%.

For `COc1cc(Br)c(Br)cc1N`, which activity change, negative = inhibition is on record?
The activity change, negative = inhibition was inconclusive: -0.896%.

For `CCOC(=O)C(C)Oc1cccc2c(=O)n(CC(=O)NCCc3ccccc3)ccc12` (stereo not drawn), which “activity change, negative = inhibition” value is on record?
The value was inactive: 2.64%.

— PubChem BioAssay AID493014 (National Center for Advancing Translational Sciences (NCATS), 2011)
